For experiment [1], the target named is T1, human CD228 on the cell surface (RPMI-7951 cells stably expressing human CD228; A375 cells) (human) (UniProt P08582).
T1 sequence (looked up): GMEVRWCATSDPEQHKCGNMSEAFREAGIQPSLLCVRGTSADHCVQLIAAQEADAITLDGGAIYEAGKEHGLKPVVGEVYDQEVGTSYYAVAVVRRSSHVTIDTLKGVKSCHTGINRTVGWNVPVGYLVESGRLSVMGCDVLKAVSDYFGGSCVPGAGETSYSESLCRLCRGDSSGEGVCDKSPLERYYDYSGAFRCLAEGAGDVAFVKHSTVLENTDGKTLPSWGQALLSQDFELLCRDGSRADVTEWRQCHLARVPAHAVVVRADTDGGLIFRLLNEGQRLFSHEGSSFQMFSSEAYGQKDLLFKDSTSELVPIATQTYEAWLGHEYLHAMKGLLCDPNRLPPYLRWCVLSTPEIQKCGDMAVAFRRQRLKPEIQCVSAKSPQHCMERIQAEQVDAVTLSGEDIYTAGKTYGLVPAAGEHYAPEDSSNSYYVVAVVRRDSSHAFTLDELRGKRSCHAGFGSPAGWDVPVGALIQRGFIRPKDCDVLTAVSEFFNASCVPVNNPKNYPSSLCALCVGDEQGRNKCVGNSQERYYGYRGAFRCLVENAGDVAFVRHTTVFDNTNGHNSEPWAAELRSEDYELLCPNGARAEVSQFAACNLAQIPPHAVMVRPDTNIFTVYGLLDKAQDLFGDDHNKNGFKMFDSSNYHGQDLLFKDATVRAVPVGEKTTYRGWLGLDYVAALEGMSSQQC
Description: competition flow cytometry, RPMI-7951 cells stably expressing human CD228; competitor 5 nM AF647-labeled mL49; unlabeled antibody 0.06-1000 nM.

In experiment [2] the target is T1, human CD228 on the cell surface (RPMI-7951 cells stably expressing human CD228; A375 cells) (human). Kind of experiment: saturation binding by flow cytometry, RPMI-7951 cells stably expressing human CD228; PE anti-human IgG secondary. (A flow cytometer gives signals particle by particle.)

No constants are given. Whether binding was seen depends on the method and setting. Some results given as binding are weak or reduced against the parent protein; the word gives no strength.

B1: cL49ec (chimeric L49 with an S239C mutation) (antibody, V domains shown)
VH: EVQLQESGPSLVKPSQTLSLTCSVTGDSITSGYWNWIRKFPGNKLEYMGYISDSGITYYNPSLKSRISITRDTSKNQYYLQLNFVTAEDTATYNCARRTLATYYAMDYWGQGTSVTVSS
VL: DFVMTQTPLSLPVSLGDQASISCRASQSLVHSNGNTYLHWYLQKPGQSPKLLIYRVSNRFSGVPDRFSGSGSGTDFTLKISRVEAEDLGVYFCSQSTHVPPTFGGGTKLEIK
notes: Human constant regions with S239C; also called chimeric LA9
For the molecule B1, the binding entry in experiment [1] and in experiment [2] was “binds” throughout.

The record behind these values is patent publication US20240409658A1 (Seagen, published 2024).
